Reference: the supplement of paper PMC10849652
Some of the results follow.

Chains of the proteins cited; added tags and fusions are not shown. Lines headed by an entry give the natural chain unless they say otherwise; changes in a name come on top.
UniProt Q9H6V9: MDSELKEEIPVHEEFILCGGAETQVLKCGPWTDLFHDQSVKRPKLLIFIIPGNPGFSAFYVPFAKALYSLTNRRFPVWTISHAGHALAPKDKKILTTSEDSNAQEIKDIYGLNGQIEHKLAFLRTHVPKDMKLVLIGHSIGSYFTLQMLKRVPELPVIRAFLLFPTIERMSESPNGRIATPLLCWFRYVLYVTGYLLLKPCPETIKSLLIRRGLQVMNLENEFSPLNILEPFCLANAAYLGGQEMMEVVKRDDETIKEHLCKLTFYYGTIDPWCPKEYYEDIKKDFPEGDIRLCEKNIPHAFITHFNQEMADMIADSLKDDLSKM
UniProt Q9BRT6: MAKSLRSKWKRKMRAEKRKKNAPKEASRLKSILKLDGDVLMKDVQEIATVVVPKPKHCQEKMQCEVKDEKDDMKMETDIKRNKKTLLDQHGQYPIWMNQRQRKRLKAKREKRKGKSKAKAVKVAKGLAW
UniProt Q9UHA4, whole entry, looked up: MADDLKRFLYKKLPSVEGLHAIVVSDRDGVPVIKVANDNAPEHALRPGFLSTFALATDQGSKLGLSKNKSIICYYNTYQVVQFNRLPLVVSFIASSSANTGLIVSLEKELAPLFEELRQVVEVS
UniProt Q71RC2, whole entry, looked up: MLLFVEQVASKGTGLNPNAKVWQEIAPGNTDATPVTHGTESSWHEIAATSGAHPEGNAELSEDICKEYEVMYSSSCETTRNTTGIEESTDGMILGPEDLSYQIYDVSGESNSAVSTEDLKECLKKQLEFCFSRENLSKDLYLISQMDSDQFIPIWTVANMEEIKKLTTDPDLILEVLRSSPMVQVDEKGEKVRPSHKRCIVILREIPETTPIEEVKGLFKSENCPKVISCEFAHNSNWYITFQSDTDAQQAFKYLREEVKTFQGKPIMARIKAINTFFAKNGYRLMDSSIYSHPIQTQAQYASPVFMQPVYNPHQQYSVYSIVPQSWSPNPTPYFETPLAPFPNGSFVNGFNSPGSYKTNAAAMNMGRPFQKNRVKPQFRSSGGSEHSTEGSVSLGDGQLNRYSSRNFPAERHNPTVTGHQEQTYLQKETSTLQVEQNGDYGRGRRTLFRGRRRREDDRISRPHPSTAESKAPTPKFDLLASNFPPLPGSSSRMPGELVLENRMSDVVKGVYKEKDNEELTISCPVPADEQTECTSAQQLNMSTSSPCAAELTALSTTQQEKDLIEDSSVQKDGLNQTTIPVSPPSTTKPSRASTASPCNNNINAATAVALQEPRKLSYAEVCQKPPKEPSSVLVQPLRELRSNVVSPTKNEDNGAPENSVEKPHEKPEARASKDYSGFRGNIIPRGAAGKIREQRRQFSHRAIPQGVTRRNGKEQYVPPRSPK
UniProt Q86WA8: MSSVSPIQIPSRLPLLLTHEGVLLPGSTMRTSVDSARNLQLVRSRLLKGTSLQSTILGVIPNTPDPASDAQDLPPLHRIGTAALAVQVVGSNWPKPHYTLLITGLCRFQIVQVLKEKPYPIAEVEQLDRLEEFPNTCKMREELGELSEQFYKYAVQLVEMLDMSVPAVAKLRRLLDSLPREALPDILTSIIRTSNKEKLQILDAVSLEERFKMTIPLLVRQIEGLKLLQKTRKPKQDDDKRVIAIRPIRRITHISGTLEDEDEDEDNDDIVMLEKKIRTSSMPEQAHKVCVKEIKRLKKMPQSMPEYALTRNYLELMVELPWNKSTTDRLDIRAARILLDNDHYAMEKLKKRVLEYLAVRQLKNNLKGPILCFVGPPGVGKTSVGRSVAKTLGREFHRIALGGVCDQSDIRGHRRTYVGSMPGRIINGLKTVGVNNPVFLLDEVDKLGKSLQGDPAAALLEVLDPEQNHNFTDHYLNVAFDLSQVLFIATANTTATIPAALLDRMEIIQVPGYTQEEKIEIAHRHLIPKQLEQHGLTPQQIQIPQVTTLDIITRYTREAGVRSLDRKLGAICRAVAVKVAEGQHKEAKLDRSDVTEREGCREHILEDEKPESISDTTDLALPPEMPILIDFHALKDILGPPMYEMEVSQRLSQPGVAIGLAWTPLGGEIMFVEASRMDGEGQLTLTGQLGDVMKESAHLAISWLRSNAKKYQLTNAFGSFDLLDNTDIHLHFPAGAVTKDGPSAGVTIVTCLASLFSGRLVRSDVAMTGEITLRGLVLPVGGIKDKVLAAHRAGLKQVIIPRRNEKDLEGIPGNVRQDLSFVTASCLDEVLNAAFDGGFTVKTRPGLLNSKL
UniProt P50851: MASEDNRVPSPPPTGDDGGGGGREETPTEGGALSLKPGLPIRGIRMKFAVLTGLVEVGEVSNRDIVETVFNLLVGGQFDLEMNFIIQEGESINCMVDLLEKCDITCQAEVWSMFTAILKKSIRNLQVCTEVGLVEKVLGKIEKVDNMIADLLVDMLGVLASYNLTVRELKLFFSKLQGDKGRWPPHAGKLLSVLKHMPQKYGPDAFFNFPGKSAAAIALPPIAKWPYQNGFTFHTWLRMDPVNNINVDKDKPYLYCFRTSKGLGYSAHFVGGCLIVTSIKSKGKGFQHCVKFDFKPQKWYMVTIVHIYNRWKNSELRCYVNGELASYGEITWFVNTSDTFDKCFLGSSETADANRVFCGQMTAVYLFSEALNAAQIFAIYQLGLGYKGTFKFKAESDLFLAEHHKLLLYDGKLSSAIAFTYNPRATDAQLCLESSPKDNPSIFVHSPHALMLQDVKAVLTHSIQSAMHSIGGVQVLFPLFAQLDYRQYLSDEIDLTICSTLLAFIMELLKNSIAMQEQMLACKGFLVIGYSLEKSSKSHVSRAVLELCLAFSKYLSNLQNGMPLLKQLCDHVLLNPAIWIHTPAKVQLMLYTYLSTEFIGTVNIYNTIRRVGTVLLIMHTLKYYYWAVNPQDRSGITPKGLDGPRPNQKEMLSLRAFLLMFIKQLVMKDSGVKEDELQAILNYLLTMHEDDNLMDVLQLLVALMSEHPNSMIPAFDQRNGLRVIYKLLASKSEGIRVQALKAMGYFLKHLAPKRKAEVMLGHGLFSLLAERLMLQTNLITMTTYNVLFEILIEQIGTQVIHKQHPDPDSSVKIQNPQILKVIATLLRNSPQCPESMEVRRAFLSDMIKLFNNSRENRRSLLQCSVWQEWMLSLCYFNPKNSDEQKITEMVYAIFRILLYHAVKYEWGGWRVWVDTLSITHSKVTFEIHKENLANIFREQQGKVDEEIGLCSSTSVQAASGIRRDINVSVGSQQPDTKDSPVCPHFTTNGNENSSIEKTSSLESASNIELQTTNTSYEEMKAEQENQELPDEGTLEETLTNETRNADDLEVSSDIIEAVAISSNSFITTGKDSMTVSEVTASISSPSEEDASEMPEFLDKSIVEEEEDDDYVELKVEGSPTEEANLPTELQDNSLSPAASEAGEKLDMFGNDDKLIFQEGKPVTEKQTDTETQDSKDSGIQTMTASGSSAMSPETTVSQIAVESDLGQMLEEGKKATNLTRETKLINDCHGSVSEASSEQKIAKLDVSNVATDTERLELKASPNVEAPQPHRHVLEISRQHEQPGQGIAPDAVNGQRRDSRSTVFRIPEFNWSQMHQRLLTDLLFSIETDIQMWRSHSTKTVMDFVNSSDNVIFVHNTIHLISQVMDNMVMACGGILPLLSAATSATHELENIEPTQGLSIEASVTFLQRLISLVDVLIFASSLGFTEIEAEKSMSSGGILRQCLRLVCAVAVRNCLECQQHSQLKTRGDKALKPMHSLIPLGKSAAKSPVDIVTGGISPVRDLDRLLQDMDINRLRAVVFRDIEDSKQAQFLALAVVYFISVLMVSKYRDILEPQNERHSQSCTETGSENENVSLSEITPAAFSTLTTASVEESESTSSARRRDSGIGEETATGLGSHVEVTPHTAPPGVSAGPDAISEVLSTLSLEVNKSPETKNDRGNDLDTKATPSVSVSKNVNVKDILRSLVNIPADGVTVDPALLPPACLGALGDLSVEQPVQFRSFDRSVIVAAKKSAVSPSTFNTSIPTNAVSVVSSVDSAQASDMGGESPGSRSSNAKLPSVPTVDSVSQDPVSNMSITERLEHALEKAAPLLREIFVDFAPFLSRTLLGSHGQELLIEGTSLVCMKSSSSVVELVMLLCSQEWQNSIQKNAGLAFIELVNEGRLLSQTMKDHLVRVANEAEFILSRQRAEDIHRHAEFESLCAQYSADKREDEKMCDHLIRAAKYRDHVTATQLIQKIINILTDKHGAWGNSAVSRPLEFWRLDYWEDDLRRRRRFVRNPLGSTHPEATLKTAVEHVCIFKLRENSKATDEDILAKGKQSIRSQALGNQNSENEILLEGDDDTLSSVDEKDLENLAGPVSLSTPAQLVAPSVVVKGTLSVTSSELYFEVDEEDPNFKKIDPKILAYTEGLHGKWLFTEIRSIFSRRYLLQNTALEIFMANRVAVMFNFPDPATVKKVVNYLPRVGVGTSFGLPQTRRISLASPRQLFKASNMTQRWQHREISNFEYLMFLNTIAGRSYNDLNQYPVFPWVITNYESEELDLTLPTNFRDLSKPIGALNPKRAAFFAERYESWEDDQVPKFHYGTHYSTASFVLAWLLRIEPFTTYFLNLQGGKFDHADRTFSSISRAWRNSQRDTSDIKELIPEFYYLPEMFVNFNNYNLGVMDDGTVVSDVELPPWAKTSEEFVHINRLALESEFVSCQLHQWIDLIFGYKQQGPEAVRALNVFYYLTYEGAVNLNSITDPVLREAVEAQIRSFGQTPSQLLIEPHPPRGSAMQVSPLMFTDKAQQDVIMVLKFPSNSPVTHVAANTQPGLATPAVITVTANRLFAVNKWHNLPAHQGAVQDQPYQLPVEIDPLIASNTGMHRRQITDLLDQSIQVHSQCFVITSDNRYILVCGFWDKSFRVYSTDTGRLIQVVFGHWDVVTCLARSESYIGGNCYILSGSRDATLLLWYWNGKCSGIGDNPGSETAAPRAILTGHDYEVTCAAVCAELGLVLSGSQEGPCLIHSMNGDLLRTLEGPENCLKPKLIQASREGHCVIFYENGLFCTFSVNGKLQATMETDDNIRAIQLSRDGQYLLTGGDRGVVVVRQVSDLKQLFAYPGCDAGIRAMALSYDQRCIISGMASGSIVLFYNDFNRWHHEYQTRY
UniProt Q96AG4: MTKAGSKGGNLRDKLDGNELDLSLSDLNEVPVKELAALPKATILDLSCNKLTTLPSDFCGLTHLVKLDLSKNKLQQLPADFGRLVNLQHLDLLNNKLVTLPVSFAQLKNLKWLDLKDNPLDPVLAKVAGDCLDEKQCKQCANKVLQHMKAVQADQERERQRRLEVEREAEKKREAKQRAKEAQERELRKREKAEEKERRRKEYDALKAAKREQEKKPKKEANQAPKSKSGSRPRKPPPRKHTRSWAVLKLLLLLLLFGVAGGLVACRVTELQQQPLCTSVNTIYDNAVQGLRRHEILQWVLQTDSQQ
UniProt Q9H0V9: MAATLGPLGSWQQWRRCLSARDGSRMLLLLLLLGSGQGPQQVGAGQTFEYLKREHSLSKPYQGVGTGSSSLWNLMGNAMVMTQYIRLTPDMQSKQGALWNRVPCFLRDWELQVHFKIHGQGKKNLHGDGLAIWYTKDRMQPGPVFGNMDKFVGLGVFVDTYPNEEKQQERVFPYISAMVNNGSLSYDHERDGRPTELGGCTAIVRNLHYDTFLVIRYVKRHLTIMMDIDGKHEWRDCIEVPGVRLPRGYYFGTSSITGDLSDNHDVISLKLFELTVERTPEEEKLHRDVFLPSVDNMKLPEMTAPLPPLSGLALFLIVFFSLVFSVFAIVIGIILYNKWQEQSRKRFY
UniProt P01130: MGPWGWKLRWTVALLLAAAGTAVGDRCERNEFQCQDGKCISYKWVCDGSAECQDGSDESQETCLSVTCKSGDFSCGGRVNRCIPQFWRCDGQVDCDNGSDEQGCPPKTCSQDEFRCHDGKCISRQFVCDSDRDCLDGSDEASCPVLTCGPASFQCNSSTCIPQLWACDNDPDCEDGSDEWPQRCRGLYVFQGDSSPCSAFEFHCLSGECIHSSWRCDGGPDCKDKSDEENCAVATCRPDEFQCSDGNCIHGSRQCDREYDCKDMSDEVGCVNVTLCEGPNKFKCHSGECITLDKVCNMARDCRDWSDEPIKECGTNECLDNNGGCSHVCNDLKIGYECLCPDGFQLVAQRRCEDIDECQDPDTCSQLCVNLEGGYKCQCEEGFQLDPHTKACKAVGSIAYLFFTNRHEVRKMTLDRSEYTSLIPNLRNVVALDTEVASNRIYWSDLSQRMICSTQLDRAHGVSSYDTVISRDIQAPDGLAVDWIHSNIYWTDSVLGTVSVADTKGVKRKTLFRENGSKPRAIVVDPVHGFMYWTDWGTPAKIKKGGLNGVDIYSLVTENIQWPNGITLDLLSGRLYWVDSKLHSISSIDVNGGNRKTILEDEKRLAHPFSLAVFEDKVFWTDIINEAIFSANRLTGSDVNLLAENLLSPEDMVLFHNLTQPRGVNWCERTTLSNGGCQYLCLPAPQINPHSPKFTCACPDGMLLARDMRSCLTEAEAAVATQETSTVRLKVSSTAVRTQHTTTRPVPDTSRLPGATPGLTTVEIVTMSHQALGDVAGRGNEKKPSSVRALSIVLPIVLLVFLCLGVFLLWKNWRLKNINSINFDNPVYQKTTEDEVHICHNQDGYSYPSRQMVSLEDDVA

Tests used:
Assay in all cases: log2 fold change, soluble protein after heating vs DMSO (PISA); higher = thermal stabilisation; K562 cells, 10 uM, 30 min; active = over 0.2 and 3.5 SD of the protein, either way, in both replicates (recomputed)
[1] = compound: COC1=CC=C(C=C1)CN2C=CC3=C2C=C(C=C3)C(=O)NO
How it was run: (§1)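 Quantification of soluble protein used TMTpro 16plex LC-MS/MS, with channel sums equalised. Samples were the supernatant after 21,000xg for 90 min of pooled aliquots from K562 cells (2×10^6 cells/mL) treated with 10 μM compound for 30 min, heated for 3 min over 48°C-58°C, and extracted in PBS with 0.5% NP-40 at 4°C. Values, from duplicates, describe thermal stability against control samples on a log2 fold-change scale.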

[2] = compound: CON(C)C(=O)N1N=C(c2cc(F)ccc2F)S[C@@]1(CCCN)c1ccccc1 [filanesib]
How it was run: as §1

[3] = compound: CO[C@H]1C[C@@H]2CC[C@@H](C)[C@@](O)(O2)C(=O)C(=O)N2CCCC[C@H]2C(=O)O[C@H]([C@H](C)C[C@@H]2CC[C@H](n3cnnn3)[C@H](OC)C2)CC(=O)[C@H](C)/C=C(\C)[C@@H](O)[C@@H](OC)C(=O)[C@H](C)C[C@H](C)/C=C/C=C/C=C/1C [zotarolimus]
How it was run: as §1

[4] = compound: COc1cc(C(=O)O)ccc1NC(=O)[C@@H]1N[C@@H](CC(C)(C)C)[C@](C#N)(c2ccc(Cl)cc2F)[C@H]1c1cccc(Cl)c1F [idasanutlin]
How it was run: as §1

[5] = compound: COc1cc(Nc2ncc3c(n2)-c2ccc(Cl)cc2C(c2c(F)cccc2OC)=NC3)ccc1C(=O)O [alisertib]
How it was run: as §1

[6] = compound: COc1cc2nc(-c3cc(F)ccc3O)nc(N[C@@H]3CNC[C@H]3C(C)(C)O)c2cc1OC
How it was run: as §1

[7] = compound: COc1cc2ncnc(Nc3ccc(F)c(Cl)c3)c2cc1OCCCN1CCOCC1 [gefitinib]
How it was run: as §1

[8] = compound: COc1cccc2cc(-c3nc([C@H]4CC[C@H](C(=O)O)CC4)n4ncnc(N)c34)[nH]c12
How it was run: as §1

[9] = compound: CS(=O)(=O)CCNCc1ccc(-c2ccc3ncnc(Nc4ccc(OCc5cccc(F)c5)c(Cl)c4)c3c2)o1 [lapatinib]
How it was run: as §1

[10] = compound: CS(=O)(=O)N1CCN(Cc2cc3nc(-c4cccc5[nH]ncc45)nc(N4CCOCC4)c3s2)CC1 [pictilisib]
How it was run: as §1

Row | Target | log2 fold change [1] | log2 fold change [2] | log2 fold change [3] | log2 fold change [4] | log2 fold change [5] | log2 fold change [6] | log2 fold change [7] | log2 fold change [8] | log2 fold change [9] | log2 fold change [10]
1 | KYAT1 (UniProt Q16773) | inactive: -0.062 | inactive: -0.004 | inactive: 0.006 | inactive: -0.041 | inactive: 0.039 | inactive: 0.018 | inactive: 0.005 | inactive: 0.086 | inactive: -0.007 | inactive: -0.01
2 | LNPK (UniProt Q9C0E8) | inactive: 0.007 | inactive: -0.005 | inactive: -0.049 | inactive: -0.002 | inactive: -0.034 | inactive: 0.001 | inactive: 0.025 | inactive: 0.079 | inactive: -0.008 | inactive: 0.017
3 | LDAH isoform 2 (UniProt Q9H6V9) | inactive: 0.06 | inactive: -0.137 | inactive: 0.057 | inactive: -0.185 | inactive: -0.041 | active: -0.517 | inactive: 0.004 | inactive: 0.032 | inactive: -0.005 | inactive: 0.075
4 | LLPH (UniProt Q9BRT6) | inactive: -0.179 | inactive: 0.514 | inactive: 0.044 | inactive: 0.232 | inactive: -0.048 | inactive: -0.126 | inactive: -0.135 | inactive: -0.128 | inactive: 0.021 | inactive: -0.24
5 | LAMTOR3 (UniProt Q9UHA4) | inactive: 0.029 | inactive: -0.075 | inactive: -0.01 | inactive: -0.029 | inactive: -0.061 | inactive: -0.053 | inactive: -0.004 | inactive: -0.162 | inactive: -0.005 | inactive: -0.218
6 | LDHA isoform 3 (UniProt P00338) | inactive: 0.005 | inactive: -0.041 | inactive: -0.018 | inactive: -0.018 | inactive: -0.049 | inactive: -0.003 | inactive: -0.013 | inactive: 0.043 | inactive: -0.007 | inactive: 0.029
7 | LMNA (UniProt P02545) | inactive: -0.093 | inactive: 0.088 | inactive: 0.018 | inactive: 0.093 | inactive: 0.096 | inactive: -0.112 | inactive: -0.014 | inactive: 0 | inactive: 0.028 | inactive: 0.008
8 | LDHB (UniProt P07195) | inactive: -0.051 | inactive: -0.027 | inactive: -0.012 | inactive: -0.036 | inactive: -0.053 | inactive: 0.008 | inactive: 0.003 | inactive: 0.12 | inactive: -0.028 | inactive: -0.033
9 | LPL (UniProt P06858) | inactive: -0.08 | inactive: 0.114 | inactive: 0.152 | inactive: 0.028 | inactive: -0.042 | inactive: 0.037 | – | inactive: 0.109 | inactive: 0.082 | inactive: 0.013
10 | LARP4 isoform 4 (UniProt Q71RC2) | inactive: 0.005 | inactive: 0.111 | inactive: -0.007 | inactive: 0.071 | inactive: -0.045 | inactive: -0.159 | inactive: 0.01 | inactive: -0.125 | inactive: 0.054 | inactive: -0.068
11 | LMAN1 (UniProt P49257) | inactive: -0.06 | inactive: -0.063 | inactive: -0.013 | inactive: 0.021 | inactive: -0.034 | inactive: -0.036 | inactive: -0.013 | inactive: 0.005 | inactive: -0.021 | inactive: -0.039
12 | LONP2 (UniProt Q86WA8) | inactive: -0.002 | inactive: -0.019 | inactive: -0.02 | inactive: -0.177 | inactive: -0.115 | inactive: 0.375 | inactive: 0.129 | inactive: 0.015 | inactive: 0.1 | inactive: -0.041
13 | LRBA (UniProt P50851) | inactive: -0.004 | inactive: -0.06 | inactive: 0.002 | inactive: -0.113 | inactive: -0.017 | inactive: 0.029 | inactive: -0.008 | inactive: 0.031 | inactive: 0.009 | inactive: -0.015
14 | LIMS1 isoform 3 (UniProt P48059) | inactive: 0.046 | inactive: -0.01 | inactive: 0.007 | inactive: -0.007 | inactive: -0.019 | inactive: 0.007 | inactive: -0.022 | inactive: -0.023 | inactive: -0.017 | inactive: 0.038
15 | LMNB2 (UniProt Q03252) | inactive: -0.023 | inactive: 0.1 | inactive: -0.064 | inactive: 0.099 | inactive: 0.004 | inactive: -0.005 | inactive: -0.001 | inactive: 0.069 | inactive: 0.059 | inactive: 0.03
16 | LRFN4 (UniProt Q6PJG9) | inactive: -0.137 | inactive: -0.07 | inactive: 0.004 | inactive: 0.101 | inactive: -0.03 | inactive: -0.173 | – | inactive: 0.218 | inactive: -0.063 | inactive: 0.083
17 | LIMA1 isoform 4 (UniProt Q9UHB6) | inactive: -0.044 | inactive: 0.178 | inactive: 0.021 | inactive: 0.008 | inactive: -0.028 | inactive: 0.171 | inactive: 0.077 | inactive: 0.11 | inactive: -0.126 | inactive: -0.1
18 | LAMP2 (UniProt P13473) | inactive: -0.125 | inactive: -0.058 | inactive: -0.022 | inactive: -0.005 | inactive: -0.006 | inactive: -0.012 | inactive: 0.005 | inactive: 0.084 | inactive: -0.079 | inactive: 0.046
19 | LRRC59 (UniProt Q96AG4) | inactive: 0.064 | inactive: -0.029 | inactive: 0.004 | inactive: 0.034 | inactive: -0.047 | inactive: 0.017 | inactive: 0.014 | inactive: -0.03 | inactive: -0.064 | inactive: 0.01
20 | LMAN2L isoform 2 (UniProt Q9H0V9) | inactive: 0.045 | inactive: -0.11 | inactive: -0.004 | inactive: -0.043 | inactive: -0.067 | inactive: 0.032 | inactive: 0.002 | inactive: 0.018 | inactive: 0.005 | inactive: -0.079
21 | LAMTOR4 (UniProt Q0VGL1) | inactive: 0.032 | inactive: -0.066 | inactive: -0.028 | inactive: 0.06 | inactive: -0.068 | inactive: -0.143 | inactive: -0.011 | inactive: -0.212 | inactive: 0.032 | inactive: -0.2
22 | LAMP1 (UniProt P11279) | inactive: -0.112 | inactive: 0.031 | inactive: -0.003 | inactive: -0.043 | inactive: 0.055 | inactive: -0.003 | inactive: 0.022 | inactive: 0.071 | inactive: 0 | inactive: 0.024
23 | LDLR (UniProt P01130) | inactive: -0.012 | inactive: 0.005 | inactive: -0.07 | inactive: 0.009 | inactive: 0.073 | inactive: -0.017 | inactive: 0.095 | inactive: 0.008 | inactive: 0.042 | inactive: 0.078
24 | LPCAT2 (UniProt Q7L5N7) | inactive: 0.03 | inactive: -0.036 | inactive: 0.054 | inactive: -0.115 | inactive: 0.097 | inactive: 0.158 | – | inactive: -0.048 | inactive: 0.018 | inactive: -0.043
25 | LIMD1 (UniProt Q9UGP4) | inactive: 0.027 | inactive: -0.007 | inactive: 0.028 | inactive: 0.028 | inactive: -0.059 | inactive: 0 | inactive: -0.078 | inactive: -0.01 | inactive: 0.06 | inactive: -0.043
26 | LPIN1 isoform 7 (UniProt Q14693) | inactive: -0.079 | inactive: 0.047 | inactive: -0.048 | inactive: -0.03 | inactive: 0.046 | inactive: 0.017 | inactive: -0.018 | inactive: -0.041 | inactive: -0.101 | inactive: -0.035

A few values from above:
For log2 fold change [1], LPL (UniProt P06858) is listed with inactive: -0.08
For log2 fold change [10], LMNA (UniProt P02545) is listed with inactive: 0.008
